Measured values as given in paper PMC4332150.
These are yes or no findings as the source states them, for the method shown. Binding seen in cells or lysates may run through a third protein. Here binding means that the protein was enriched with, or labelled near, the bait; the list need not be complete. For some assays here: A no says only that the protein was not detected with the bait. For some assays here: Where a sequence is shown, tags or fusion partners need not be part of it. Values belong to the binder of their own block, whether it stands above or below them.

Chains of the proteins cited; added tags and fusions are not shown.
UniProt P16220: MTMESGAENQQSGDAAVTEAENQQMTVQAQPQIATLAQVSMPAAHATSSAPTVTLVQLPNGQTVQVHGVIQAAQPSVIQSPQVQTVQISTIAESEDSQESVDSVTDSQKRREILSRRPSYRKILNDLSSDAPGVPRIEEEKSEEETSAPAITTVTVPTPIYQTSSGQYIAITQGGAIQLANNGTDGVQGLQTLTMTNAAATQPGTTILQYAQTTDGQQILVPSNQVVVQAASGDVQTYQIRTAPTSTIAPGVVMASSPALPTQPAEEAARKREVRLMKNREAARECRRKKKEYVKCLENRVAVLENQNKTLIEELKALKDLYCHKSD
UniProt Q9UKB1: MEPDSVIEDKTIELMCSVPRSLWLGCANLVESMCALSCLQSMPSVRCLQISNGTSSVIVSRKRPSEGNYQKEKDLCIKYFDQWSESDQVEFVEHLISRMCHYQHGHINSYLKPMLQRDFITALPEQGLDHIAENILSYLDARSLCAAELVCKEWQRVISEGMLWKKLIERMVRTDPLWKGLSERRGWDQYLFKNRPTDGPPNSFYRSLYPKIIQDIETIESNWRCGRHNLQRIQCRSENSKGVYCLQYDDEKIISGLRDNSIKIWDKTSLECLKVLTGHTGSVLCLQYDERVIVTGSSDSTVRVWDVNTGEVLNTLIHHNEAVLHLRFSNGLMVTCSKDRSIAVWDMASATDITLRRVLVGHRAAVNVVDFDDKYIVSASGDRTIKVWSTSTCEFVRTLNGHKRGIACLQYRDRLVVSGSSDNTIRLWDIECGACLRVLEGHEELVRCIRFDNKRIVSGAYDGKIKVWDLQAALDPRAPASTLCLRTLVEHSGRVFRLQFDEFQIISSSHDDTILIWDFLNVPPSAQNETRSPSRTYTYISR
UniProt P61244: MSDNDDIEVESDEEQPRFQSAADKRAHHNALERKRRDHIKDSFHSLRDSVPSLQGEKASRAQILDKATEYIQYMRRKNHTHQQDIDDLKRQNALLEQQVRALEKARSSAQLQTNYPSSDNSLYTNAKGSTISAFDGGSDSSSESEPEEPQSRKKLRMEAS

How the values were obtained:
[1] = target: T1, SFB-tagged NFATC1 (human) (UniProt O95644); experiment: affinity purification with mass spectrometry; TAP (streptavidin beads, biotin elution, S-protein beads; NETN buffer) of C-terminally SFB-tagged bait from HEK293T; soluble fraction (supernatant of the NETN lysate); forward and reciprocal purifications
T1 sequence: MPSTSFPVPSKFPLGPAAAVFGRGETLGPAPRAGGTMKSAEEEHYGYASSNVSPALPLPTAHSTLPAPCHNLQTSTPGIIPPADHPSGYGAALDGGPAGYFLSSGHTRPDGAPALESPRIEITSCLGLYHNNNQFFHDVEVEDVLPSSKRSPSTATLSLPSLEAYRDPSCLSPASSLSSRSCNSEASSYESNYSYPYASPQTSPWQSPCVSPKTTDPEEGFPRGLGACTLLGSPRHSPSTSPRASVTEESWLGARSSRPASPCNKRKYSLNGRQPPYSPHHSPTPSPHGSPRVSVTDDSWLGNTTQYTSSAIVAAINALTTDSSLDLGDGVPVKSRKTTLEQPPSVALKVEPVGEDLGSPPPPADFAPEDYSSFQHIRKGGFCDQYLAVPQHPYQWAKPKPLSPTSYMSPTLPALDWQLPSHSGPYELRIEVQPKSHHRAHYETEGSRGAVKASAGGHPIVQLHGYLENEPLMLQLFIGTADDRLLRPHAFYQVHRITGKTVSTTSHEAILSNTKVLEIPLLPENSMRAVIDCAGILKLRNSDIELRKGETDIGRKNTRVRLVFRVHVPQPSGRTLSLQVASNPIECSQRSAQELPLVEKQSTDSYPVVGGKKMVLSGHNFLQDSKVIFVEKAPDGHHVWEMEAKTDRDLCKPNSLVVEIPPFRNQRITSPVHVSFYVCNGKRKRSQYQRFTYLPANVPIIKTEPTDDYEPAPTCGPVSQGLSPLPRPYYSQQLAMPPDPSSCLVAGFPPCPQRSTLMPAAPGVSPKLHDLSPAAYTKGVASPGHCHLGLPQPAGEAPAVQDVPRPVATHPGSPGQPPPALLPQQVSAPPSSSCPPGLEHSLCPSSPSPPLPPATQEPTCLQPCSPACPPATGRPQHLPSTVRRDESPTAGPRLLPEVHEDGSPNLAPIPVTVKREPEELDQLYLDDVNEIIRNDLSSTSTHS

SFB-tagged CREB1 (human) [2] = target: SFB-tagged CREB1 (human) (UniProt P16220); experiment: as above
[3] = target: T1, SFB-tagged NFATC1 (human); experiment: affinity purification with mass spectrometry; TAP (streptavidin beads, biotin elution, S-protein beads; NETN buffer) of C-terminally SFB-tagged bait from HEK293T; chromatin fraction (pellet after NETN lysis, digested with TurboNuclease); forward and reciprocal purifications; some baits also after drug treatment
SFB-tagged CREB1 (human) [4] = target: SFB-tagged CREB1 (human) (UniProt P16220); experiment: as above
[5] = target: βTRCP2/FBXW11 as bait of the reciprocal TAP/MS (UniProt Q9UKB1); experiment: affinity purification with mass spectrometry; same TAP/MS of SFB-tagged bait from HEK293T; the fraction in which the hit was found is not given
SFB-tagged MAX (human) = SFB-tagged MAX (human) (UniProt P61244); experiment: as above

binding (SFB-tagged CREB1 (human) [2]): binds | binding [3]: binds | binding (SFB-tagged CREB1 (human) [4]): binds
B1: ATF1 (endogenous) (protein, UniProt P18846 1-271)
chain: MEDSHKSTTSETAPQPGSAVQGAHISHIAQQVSSLSESEESQDSSDSIGSSQKAHGILARRPSYRKILKDLSSEDTRGRKGDGENSGVSAAVTSMSVPTPIYQTSSGQYIAIAPNGALQLASPGTDGVQGLQTLTMTNSGSTQQGTTILQYAQTSDGQQILVPSNQVVVQTASGDMQTYQIRTTPSATSLPQTVVMTSPVTLTSQTTKTDDPQLKREIRLMKNREAARECRRKKKEYVKCLENRVAVLENQNKTLIEELKTLKDLYSNKSV
binding [1]: no binding (only in the soluble fraction)

binding [5]: binds
B2: CDC25A (endogenous) (protein, UniProt P30304 1-524)
chain: MELGPEPPHRRRLLFACSPPPASQPVVKALFGASAAGGLSPVTNLTVTMDQLQGLGSDYEQPLEVKNNSNLQRMGSSESTDSGFCLDSPGPLDSKENLENPMRRIHSLPQKLLGCSPALKRSHSDSLDHDIFQLIDPDENKENEAFEFKKPVRPVSRGCLHSHGLQEGKDLFTQRQNSAPARMLSSNERDSSEPGNFIPLFTPQSPVTATLSDEDDGFVDLLDGENLKNEEETPSCMASLWTAPLVMRTTNLDNRCKLFDSPSLCSSSTRSVLKRPERSQEESPPGSTKRRKSMSGASPKESTNPEKAHETLHQSLSLASSPKGTIENILDNDPRDLIGDFSKGYLFHTVAGKHQDLKYISPEIMASVLNGKFANLIKEFVIIDCRYPYEYEGGHIKGAVNLHMEEEVEDFLLKKPIVPTDGKRVIVVFHCEFSSERGPRMCRYVRERDRLGNEYPKLHYPELYVLKGGYKEFFMKCQSYCEPPSYRPMHHEDFKEDLKKFRTKSRTWAGEKSKREMYSRLKKL

binding [5]: binds
B3: USP47 (endogenous) (protein, UniProt Q96K76 1-1375)
chain: MVPGEENQLVPKEDVFWRCRQNIFDEMKKKFLQIENAAEEPRVLCIIQDTTNSKTVNERITLNLPASTPVRKLFEDVANKVGYINGTFDLVWGNGINTADMAPLDHTSDKSLLDANFEPGKKNFLHLTDKDGEQPQILLEDSSAGEDSVHDRFIGPLPREGSGGSTSDYVSQSYSYSSILNKSETGYVGLVNQAMTCYLNSLLQTLFMTPEFRNALYKWEFEESEEDPVTSIPYQLQRLFVLLQTSKKRAIETTDVTRSFGWDSSEAWQQHDVQELCRVMFDALEQKWKQTEQADLINELYQGKLKDYVRCLECGYEGWRIDTYLDIPLVIRPYGSSQAFASVEEALHAFIQPEILDGPNQYFCERCKKKCDARKGLRFLHFPYLLTLQLKRFDFDYTTMHRIKLNDRMTFPEELDMSTFIDVEDEKSPQTESCTDSGAENEGSCHSDQMSNDFSNDDGVDEGICLETNSGTEKISKSGLEKNSLIYELFSVMVHSGSAAGGHYYACIKSFSDEQWYSFNDQHVSRITQEDIKKTHGGSSGSRGYYSSAFASSTNAYMLIYRLKDPARNAKFLEVDEYPEHIKNLVQKERELEEQEKRQREIERNTCKIKLFCLHPTKQVMMENKLEVHKDKTLKEAVEMAYKMMDLEEVIPLDCCRLVKYDEFHDYLERSYEGEEDTPMGLLLGGVKSTYMFDLLLETRKPDQVFQSYKPGEVMVKVHVVDLKAESVAAPITVRAYLNQTVTEFKQLISKAIHLPAETMRIVLERCYNDLRLLSVSSKTLKAEGFFRSNKVFVESSETLDYQMAFADSHLWKLLDRHANTIRLFVLLPEQSPVSYSKRTAYQKAGGDSGNVDDDCERVKGPVGSLKSVEAILEESTEKLKSLSLQQQQDGDNGDSSKSTETSDFENIESPLNERDSSASVDNRELEQHIQTSDPENFQSEERSDSDVNNDRSTSSVDSDILSSSHSSDTLCNADNAQIPLANGLDSHSITSSRRTKANEGKKETWDTAEEDSGTDSEYDESGKSRGEMQYMYFKAEPYAADEGSGEGHKWLMVHVDKRITLAAFKQHLEPFVGVLSSHFKVFRVYASNQEFESVRLNETLSSFSDDNKITIRLGRALKKGEYRVKVYQLLVNEQEPCKFLLDAVFAKGMTVRQSKEELIPQLREQCGLELSIDRFRLRKKTWKNPGTVFLDYHIYEEDINISSNWEVFLEVLDGVEKMKSMSQLAVLSRRWKPSEMKLDPFQEVVLESSSVDELREKLSEISGIPLDDIEFAKGRGTFPCDISVLDIHQDLDWNPKVSTLNVWPLYICDDGAVIFYRDKTEELMELTDEQRNELMKKESSRLQKTGHRVTYSPRKEKALKIYLDGAPNKDLTQD

binding (SFB-tagged MAX (human)): binds
B4: MORC2 (endogenous) (protein, UniProt Q9Y6X9 1-1032)
chain: MAFTNYSSLNRAQLTFEYLHTNSTTHEFLFGALAELVDNARDADATRIDIYAERREDLRGGFMLCFLDDGAGMDPSDAASVIQFGKSAKRTPESTQIGQYGNGLKSGSMRIGKDFILFTKKEDTMTCLFLSRTFHEEEGIDEVIVPLPTWNARTREPVTDNVEKFAIETELIYKYSPFRTEEEVMTQFMKIPGDSGTLVIIFNLKLMDNGEPELDIISNPRDIQMAETSPEGTKPERRSFRAYAAVLYIDPRMRIFIHGHKVQTKRLSCCLYKPRMYKYTSSRFKTRAEQEVKKAEHVARIAEEKAREAESKARTLEVRLGGDLTRDSRVMLRQVQNRAITLRREADVKKRIKEAKQRALKEPKELNFVFGVNIEHRDLDGMFIYNCSRLIKMYEKVGPQLEGGMACGGVVGVVDVPYLVLEPTHNKQDFADAKEYRHLLRAMGEHLAQYWKDIAIAQRGIIKFWDEFGYLSANWNQPPSSELRYKRRRAMEIPTTIQCDLCLKWRTLPFQLSSVEKDYPDTWVCSMNPDPEQDRCEASEQKQKVPLGTFRKDMKTQEEKQKQLTEKIRQQQEKLEALQKTTPIRSQADLKKLPLEVTTRPSTEEPVRRPQRPRSPPLPAVIRNAPSRPPSLPTPRPASQPRKAPVISSTPKLPALAAREEASTSRLLQPPEAPRKPANTLVKTASRPAPLVQQLSPSLLPNSKSPREVPSPKVIKTPVVKKTESPIKLSPATPSRKRSVAVSDEEEVEEEAERRKERCKRGRFVVKEEKKDSNELSDSAGEEDSADLKRAQKDKGLHVEVRVNREWYTGRVTAVEVGKHVVRWKVKFDYVPTDTTPRDRWVEKGSEDVRLMKPPSPEHQSLDTQQEGGEEEVGPVAQQAIAVAEPSTSECLRIEPDTTALSTNHETIDLLVQILRNCLRYFLPPSFPISKKQLSAMNSDELISFPLKEYFKQYEVGLQNLCNSYQSRADSRAKASEESLRTSERKLRETEEKLQKLRTNIVALLQKVQEDIDINTDDELDAYIEDLITKGD

binding [5]: binds
B5: EEF2K (endogenous) (protein, UniProt O00418 1-725)
chain: MADEDLIFRLEGVDGGQSPRAGHDGDSDGDSDDEEGYFICPITDDPSSNQNVNSKVNKYYSNLTKSERYSSSGSPANSFHFKEAWKHAIQKAKHMPDPWAEFHLEDIATERATRHRYNAVTGEWLDDEVLIKMASQPFGRGAMRECFRTKKLSNFLHAQQWKGASNYVAKRYIEPVDRDVYFEDVRLQMEAKLWGEEYNRHKPPKQVDIMQMCIIELKDRPGKPLFHLEHYIEGKYIKYNSNSGFVRDDNIRLTPQAFSHFTFERSGHQLIVVDIQGVGDLYTDPQIHTETGTDFGDGNLGVRGMALFFYSHACNRICESMGLAPFDLSPRERDAVNQNTKLLQSAKTILRGTEEKCGSPQVRTLSGSRPPLLRPLSENSGDENMSDVTFDSLPSSPSSATPHSQKLDHLHWPVFSDLDNMASRDHDHLDNHRESENSGDSGYPSEKRGELDDPEPREHGHSYSNRKYESDEDSLGSSGRVCVEKWNLLNSSRLHLPRASAVALEVQRLNALDLEKKIGKSILGKVHLAMVRYHEGGRFCEKGEEWDQESAVFHLEHAANLGELEAIVGLGLMYSQLPHHILADVSLKETEENKTKGFDYLLKAAEAGDRQSMILVARAFDSGQNLSPDRCQDWLEALHWYNTALEMTDCDEGGEYDGMQDEPRYMMLAREAEMLFTGGYGLEKDPQRSGDLYTQAAEAAMEAMKGRLANQYYQKAEEAWAQMEE
